Data from article doi:10.1101/2022.08.05.502941.
No constants are given. Whether binding was seen depends on the method and setting. In cells and extracts the contact can be indirect. A yes stands for co-enrichment or nearness to the bait. Other partners may have been found.

The chains behind the UniProt entries cited, without tags or fusion partners.
UniProt P60880: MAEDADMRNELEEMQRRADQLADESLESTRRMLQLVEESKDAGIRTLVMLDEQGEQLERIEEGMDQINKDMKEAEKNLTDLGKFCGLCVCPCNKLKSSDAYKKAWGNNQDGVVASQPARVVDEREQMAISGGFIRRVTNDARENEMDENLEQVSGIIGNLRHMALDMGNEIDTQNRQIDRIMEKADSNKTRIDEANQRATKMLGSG

Biological target: Flag-SNAP25 (human (cDNA library of HeLa cells)) (UniProt P60880)
Test: affinity purification with mass spectrometry

B1: Snapin (protein, UniProt O95295 1-136)
chain: MAGAGSAAVSGAGTPVAGPTGRDLFAEGLLEFLRPAVQQLDSHVHAVRESQVELREQIDNLATELCRINEDQKVALDLDPYVKKLLNARRRVVLVNNILQNAQERLRRLNHSVAKETARRRAMLDSGIYPPGSPGK
binding: binds
